The test system of this assay is L1210 leukemia ip in BDF1 mice, survival T/C. In words: NCI In Vivo Anticancer Drug Screen. Data for tumor model L1210 Leukemia (intraperitoneal) in B6D2F1 (BDF1) mice. To be noted: T/C endpoint: mean survival time, higher T/C = longer survival.
The mark [1] stands for this setting: dose: 200.0 mg/kg/injection, schedule: Q01DX009 (ip), vehicle: saline with Tween-80.
Where [2] appears, read: dose: 400.0 mg/kg/injection, schedule: Q01DX009 (ip), vehicle: saline with Tween-80.

The list does not hold the whole screen: it gathers tests that were run many times, whatever their T/C, doses with no T/C, and many T/C values between a quarter and a half above the control. Further doses and runs are listed elsewhere. T/C gives the treated animals as a percentage of the vehicle group. Some doses have a count of surviving animals in place of a T/C: the source holds a T/C of zero for them, seemingly a mark for toxic or unscored doses. Some survivor counts are full or nearly so, which does not show that the dose was tolerated: survival well below the control is almost never listed, so the zero probably covers shortened survival too. Survivors were counted at the toxicity check, usually on the fifth day, unless a day is given; later deaths do not show. Schedule codes are those of the source, taken here to give the interval after Q, in days (D) or hours (H), and the number of doses after X. Some entries hold several experiments; the results are listed from low to high. For survival time, the PubChem record calls one and a half times the control and up active, and a quarter to a half above the control has no call in these data; cut-offs in other NCI protocols can differ. Counts like (3×) say how often a value occurs here.

With `C=CCC(CC)C(=O)NC(=O)N1CCCc2ccccc21` (centres undefined), the survivor count (dose: 400.0 mg/kg/injection, schedule: Q01DX001 (ip), vehicle: saline with Tween-80) is recorded as 5 of 6.
`CCOC(=O)c1cc2c(=O)c(C(=O)OCC)c[nH]c2o1`: the survivor count (dose: 200.0 mg/kg/injection, schedule: Q04DX002 (ip), vehicle: Klucel (hydroxypropylcellulose) (HPC)) was 0 of 3.
As for `CCC[CH2][Pb]([CH2]CCC)([CH2]CCC)[O]C(=O)CCl`, the survivor count was 4 of 6 (dose: 12.5 mg/kg/injection, schedule: Q01DX009 (ip), vehicle: Klucel (hydroxypropylcellulose) (HPC)); 0 of 6 (dose: 25.0 mg/kg/injection, schedule: Q01DX009 (ip), vehicle: Klucel (hydroxypropylcellulose) (HPC)); 0 of 6 (dose: 50.0 mg/kg/injection, schedule: Q04DX003 (ip), vehicle: Klucel (hydroxypropylcellulose) (HPC)); 1 of 6 (dose: 100.0 mg/kg/injection, schedule: Q04DX003 (ip), vehicle: Klucel (hydroxypropylcellulose) (HPC)); 0 of 6 (dose: 200.0 mg/kg/injection, schedule: Q04DX003 (ip), vehicle: Klucel (hydroxypropylcellulose) (HPC)); 0 of 6 (dose: 400.0 mg/kg/injection, schedule: Q04DX003 (ip), vehicle: Klucel (hydroxypropylcellulose) (HPC)).
Regarding `Cc1nc(CN(C)C)c2cnccn12`, the survivor count is reported as 3 of 6 (dose: 100.0 mg/kg/injection, schedule: Q01DX009 (ip), vehicle: saline); 2 of 6 (dose: 200.0 mg/kg/injection, schedule: Q04DX003 (ip), vehicle: saline); 1 of 6 (dose: 400.0 mg/kg/injection, schedule: Q04DX003 (ip), vehicle: saline).
`Nc1ncc(Br)c2ccccc12`: the survivor count (dose: 400.0 mg/kg/injection, schedule: Q04DX003 (ip), vehicle: saline with Tween-80) is on record as 0 of 6.
For `CC1C(c2ccccc2)N1P(I)(c1ccccc1)(c1ccccc1)c1ccccc1` (centres undefined), the survivor count runs as follows: (dose: 30.0 mg/kg/injection, schedule: Q01DX001 (ip), vehicle: carboxymethylcellulose (CMC)) 3 of 6; (dose: 60.0 mg/kg/injection, schedule: Q01DX001 (ip), vehicle: carboxymethylcellulose (CMC)) 3 of 6; (dose: 75.0 mg/kg/injection, schedule: Q01DX001 (ip), vehicle: carboxymethylcellulose (CMC)) 1 of 6; (dose: 150.0 mg/kg/injection, schedule: Q01DX001 (ip), vehicle: carboxymethylcellulose (CMC)) 0 of 6; (dose: 300.0 mg/kg/injection, schedule: Q01DX001 (ip), vehicle: carboxymethylcellulose (CMC)) 0 of 6.
Consider `CCN(CC)S(=O)(=O)c1cccc([N+](=O)[O-])c1`, for which the survivor count is listed as 6 of 6 under setting [1] and 0 of 6 under setting [2].
Turning to `COc1cc(OC)c(N=CN(C)C)cc1Cl`, the survivor count is 0 of 6 (dose: 150.0 mg/kg/injection, schedule: Q01DX009 (ip), vehicle: Klucel (hydroxypropylcellulose) (HPC)) and 0 of 6 (dose: 300.0 mg/kg/injection, schedule: Q01DX009 (ip), vehicle: Klucel (hydroxypropylcellulose) (HPC)).
In the case of `O=C1C=C2CCCCC2C1` (centres undefined), under setting [1], the survivor count was 1 of 3.
As to `COC1OC(COC(C)=O)C(OC(C)=O)C(OC(C)=O)[CH]1[Hg][S]c1ccccc1` (centres undefined), the survivor count (dose: 32.0 mg/kg/injection, schedule: Q01DX015 (ip), vehicle: carboxymethylcellulose (CMC)) was 0 of 6.
`O/C(=C/C(=S)S)c1cccs1`: the survivor count is on record as 2 of 6 (dose: 6.25 mg/kg/injection, schedule: Q01DX009 (ip), vehicle: water); 3 of 6 (dose: 12.5 mg/kg/injection, schedule: Q01DX009 (ip), vehicle: water); 0 of 6 (dose: 25.0 mg/kg/injection, schedule: Q01DX009 (ip), vehicle: water); 0 of 6 (dose: 50.0 mg/kg/injection, schedule: Q01DX009 (ip), vehicle: water); 0 of 6 (dose: 100.0 mg/kg/injection, schedule: Q04DX003 (ip), vehicle: water); 0 of 6 (dose: 200.0 mg/kg/injection, schedule: Q04DX003 (ip), vehicle: water). The survivor count (dose: 400.0 mg/kg/injection, schedule: Q04DX003 (ip), vehicle: water) was 0 of 6.
Consider `CCOC(=O)C(N)Cc1ccc(OC)c(N(CCCl)CCCl)c1` (centres undefined), for which the T/C is 148 % of control (dose: 0.73 mg/kg/injection, schedule: Q01DX009 (ip), vehicle: carboxymethylcellulose (CMC)); 129 % of control (dose: 2.6 mg/kg/injection, schedule: Q01DX001 (ip), vehicle: carboxymethylcellulose (CMC)); 137 % of control (dose: 4.0 mg/kg/injection, schedule: Q01DX001 (ip), vehicle: carboxymethylcellulose (CMC), evaluated on day 30); 132 % of control (dose: 4.0 mg/kg/injection, schedule: Q01DX001 (ip), vehicle: carboxymethylcellulose (CMC), run until all animals had died); 142 % of control (dose: 6.0 mg/kg/injection, schedule: Q01DX001 (ip), vehicle: carboxymethylcellulose (CMC), evaluated on day 30); 130 % of control (2×) (dose: 6.0 mg/kg/injection, schedule: Q01DX001 (ip), vehicle: carboxymethylcellulose (CMC), run until all animals had died). In addition, the T/C (dose: 9.0 mg/kg/injection, schedule: Q01DX001 (ip), vehicle: carboxymethylcellulose (CMC)) is 138 % of control. Besides, the survivor count by setting is: (dose: 6.0 mg/kg/injection, schedule: Q01DX009 (ip), vehicle: carboxymethylcellulose (CMC)) 2 of 6; (dose: 12.5 mg/kg/injection, schedule: Q01DX001 (ip), vehicle: carboxymethylcellulose (CMC)) 0 of 6; (dose: 25.0 mg/kg/injection, schedule: Q01DX001 (ip), vehicle: carboxymethylcellulose (CMC)) 0 of 6; (dose: 50.0 mg/kg/injection, schedule: Q01DX001 (ip), vehicle: carboxymethylcellulose (CMC)) 0 of 6.
As for `NC(=S)NN=C1CCC1`, the survivor count by setting is: (dose: 50.0 mg/kg/injection, schedule: Q01DX001 (ip), vehicle: saline) 2 of 4; (dose: 200.0 mg/kg/injection, schedule: Q01DX001 (ip), vehicle: saline) 0 of 4 and 1 of 4; (dose: 400.0 mg/kg/injection, schedule: Q01DX001 (ip), vehicle: saline) 0 of 4.
Regarding `NS(=O)(=O)c1ccccc1C(=O)O`, the survivor count (dose: 400.0 mg/kg/injection, schedule: Q01DX009 (ip), vehicle: saline) is recorded as 4 of 6.
Regarding `CC(=O)OCC(=O)[C@@]1(O)[C@H](C)C[C@H]2[C@@H]3C=C(C)C4=Cc5c(cnn5-c5ccc(F)cc5)C[C@]4(C)[C@H]3[C@@H](O)C[C@@]21C`, the survivor count was 4 of 6 (dose: 12.5 mg/kg/injection, schedule: Q01DX009 (sc), vehicle: steroid suspending solution); 3 of 6 (dose: 25.0 mg/kg/injection, schedule: Q01DX009 (sc), vehicle: steroid suspending solution); 5 of 6 (dose: 50.0 mg/kg/injection, schedule: Q01DX009 (ip), vehicle: steroid suspending solution); 6 of 6 (dose: 100.0 mg/kg/injection, schedule: Q01DX009 (ip), vehicle: steroid suspending solution); 3 of 6 (dose: 200.0 mg/kg/injection, schedule: Q01DX009 (ip), vehicle: steroid suspending solution); 6 of 6 (dose: 400.0 mg/kg/injection, schedule: Q01DX001 (ip), vehicle: steroid suspending solution).
`CCCCCCCCCCCC[Si](Cl)(Cl)Cl`: the survivor count reads like this: (dose: 150.0 mg/kg/injection, schedule: Q01DX001 (ip), vehicle: saline) 1 of 6; (dose: 300.0 mg/kg/injection, schedule: Q01DX001 (ip), vehicle: saline) 2 of 6.
Take `Cc1ccc2c(N=Nc3ccc(N(C)C)cc3)cccc2n1`: the survivor count is 6 of 6 (dose: 100.0 mg/kg/injection, schedule: Q01DX009 (ip), vehicle: saline with Tween-80); 6 of 6 under setting [1]; 0 of 6 under setting [2].
Turning to `CSc1nc2ccc(S(=O)(=O)O)cc2s1`, the survivor count is, setting by setting: (dose: 100.0 mg/kg/injection, schedule: Q01DX009 (ip), vehicle: Klucel (hydroxypropylcellulose) (HPC)) 6 of 6; (dose: 200.0 mg/kg/injection, schedule: Q01DX009 (ip), vehicle: Klucel (hydroxypropylcellulose) (HPC)) 6 of 6; (dose: 400.0 mg/kg/injection, schedule: Q01DX009 (ip), vehicle: Klucel (hydroxypropylcellulose) (HPC)) 0 of 6.

(Values after PubChem BioAssay AID248 (DTP/NCI, 2004).)
